Results are given in words; binding and its absence hold for the method and conditions named. Some entries that bind do so weakly or less than the wild type. Sequences can lack the tags named with a protein.
What was measured:
[1] = target: T1, matrilin-3 as present in mouse cartilage tissue (growth plate cartilage lysate, embryo sections) (mouse) (UniProt O35701); test: ELISA on coated tissue lysates of 4-day old mice, scFv-Fc supernatant, HRP anti-Fc
T1 sequence (looked up): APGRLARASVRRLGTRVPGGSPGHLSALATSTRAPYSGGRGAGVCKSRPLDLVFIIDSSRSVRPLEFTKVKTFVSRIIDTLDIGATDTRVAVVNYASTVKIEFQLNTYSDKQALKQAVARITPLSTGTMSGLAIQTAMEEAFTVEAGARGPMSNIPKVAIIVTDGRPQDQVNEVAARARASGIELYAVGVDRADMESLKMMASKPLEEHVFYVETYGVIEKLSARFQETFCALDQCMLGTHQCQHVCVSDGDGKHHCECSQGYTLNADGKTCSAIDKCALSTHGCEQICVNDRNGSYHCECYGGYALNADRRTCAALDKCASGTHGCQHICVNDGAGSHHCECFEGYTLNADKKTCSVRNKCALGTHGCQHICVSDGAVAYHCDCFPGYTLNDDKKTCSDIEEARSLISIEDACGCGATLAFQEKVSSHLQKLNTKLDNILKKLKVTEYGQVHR

[2] = target: T1, matrilin-3 as present in mouse cartilage tissue (growth plate cartilage lysate, embryo sections) (mouse); test: ELISA on coated organ lysates
[3] = target: T1, matrilin-3 as present in mouse cartilage tissue (growth plate cartilage lysate, embryo sections) (mouse); test: ELISA on coated tissue homogenates
[4] = target: T1, matrilin-3 as present in mouse cartilage tissue (growth plate cartilage lysate, embryo sections) (mouse); test: immunohistochemistry on frozen E15 mouse embryo sections

Measured: binding

B1: matrilin-3-binding antibody fragment 22 (clone 22 scFv fused with human IgG1 Fc fragment) (Fc fusion)
scFv: LQQSGPGLVKPSQTLSLTCAISGDSVSSNSAAWNWIRQSPSRGLEWLGRTYYGSKWYNDYAPSVKSRISINPDTSKNQFSLQLNSVTPEDTAVYYCTRGIWNAFDIWGQGTMVTVSSGGGGSGGGASGGGGSSSELTQDPAVSVALGQTVRITCQGDSLRSYYASWYQQKPGQAPLLVIYDRDNRPSGIPDRFSGSSSGNTASLTITGAQAEDEADYYCQSYDTSLSWVFGGGTQLTVL
notes: Tested as scFv-Fc; not shown: human IgG1 Fc fragment encoded by the modified pSecTagB vector; Avi tag downstream of the Fc in the vector
binds: all assays above

Source: patent publication US20160340418A1 (US Dept. of Health and Human Services, published 2016)
